Source: publication PMC12429265
No constants are given. Whether binding was seen depends on the method and setting. In cells and extracts the contact can be indirect. Some entries that bind do so weakly or less than the wild type. For some assays here: Tags and fused reporters may be left off the sequences shown. Each block holds one molecule with its values, some of them ahead of it.

Chains of the proteins cited; added tags and fusions are not shown.
UniProt Q9VXE6: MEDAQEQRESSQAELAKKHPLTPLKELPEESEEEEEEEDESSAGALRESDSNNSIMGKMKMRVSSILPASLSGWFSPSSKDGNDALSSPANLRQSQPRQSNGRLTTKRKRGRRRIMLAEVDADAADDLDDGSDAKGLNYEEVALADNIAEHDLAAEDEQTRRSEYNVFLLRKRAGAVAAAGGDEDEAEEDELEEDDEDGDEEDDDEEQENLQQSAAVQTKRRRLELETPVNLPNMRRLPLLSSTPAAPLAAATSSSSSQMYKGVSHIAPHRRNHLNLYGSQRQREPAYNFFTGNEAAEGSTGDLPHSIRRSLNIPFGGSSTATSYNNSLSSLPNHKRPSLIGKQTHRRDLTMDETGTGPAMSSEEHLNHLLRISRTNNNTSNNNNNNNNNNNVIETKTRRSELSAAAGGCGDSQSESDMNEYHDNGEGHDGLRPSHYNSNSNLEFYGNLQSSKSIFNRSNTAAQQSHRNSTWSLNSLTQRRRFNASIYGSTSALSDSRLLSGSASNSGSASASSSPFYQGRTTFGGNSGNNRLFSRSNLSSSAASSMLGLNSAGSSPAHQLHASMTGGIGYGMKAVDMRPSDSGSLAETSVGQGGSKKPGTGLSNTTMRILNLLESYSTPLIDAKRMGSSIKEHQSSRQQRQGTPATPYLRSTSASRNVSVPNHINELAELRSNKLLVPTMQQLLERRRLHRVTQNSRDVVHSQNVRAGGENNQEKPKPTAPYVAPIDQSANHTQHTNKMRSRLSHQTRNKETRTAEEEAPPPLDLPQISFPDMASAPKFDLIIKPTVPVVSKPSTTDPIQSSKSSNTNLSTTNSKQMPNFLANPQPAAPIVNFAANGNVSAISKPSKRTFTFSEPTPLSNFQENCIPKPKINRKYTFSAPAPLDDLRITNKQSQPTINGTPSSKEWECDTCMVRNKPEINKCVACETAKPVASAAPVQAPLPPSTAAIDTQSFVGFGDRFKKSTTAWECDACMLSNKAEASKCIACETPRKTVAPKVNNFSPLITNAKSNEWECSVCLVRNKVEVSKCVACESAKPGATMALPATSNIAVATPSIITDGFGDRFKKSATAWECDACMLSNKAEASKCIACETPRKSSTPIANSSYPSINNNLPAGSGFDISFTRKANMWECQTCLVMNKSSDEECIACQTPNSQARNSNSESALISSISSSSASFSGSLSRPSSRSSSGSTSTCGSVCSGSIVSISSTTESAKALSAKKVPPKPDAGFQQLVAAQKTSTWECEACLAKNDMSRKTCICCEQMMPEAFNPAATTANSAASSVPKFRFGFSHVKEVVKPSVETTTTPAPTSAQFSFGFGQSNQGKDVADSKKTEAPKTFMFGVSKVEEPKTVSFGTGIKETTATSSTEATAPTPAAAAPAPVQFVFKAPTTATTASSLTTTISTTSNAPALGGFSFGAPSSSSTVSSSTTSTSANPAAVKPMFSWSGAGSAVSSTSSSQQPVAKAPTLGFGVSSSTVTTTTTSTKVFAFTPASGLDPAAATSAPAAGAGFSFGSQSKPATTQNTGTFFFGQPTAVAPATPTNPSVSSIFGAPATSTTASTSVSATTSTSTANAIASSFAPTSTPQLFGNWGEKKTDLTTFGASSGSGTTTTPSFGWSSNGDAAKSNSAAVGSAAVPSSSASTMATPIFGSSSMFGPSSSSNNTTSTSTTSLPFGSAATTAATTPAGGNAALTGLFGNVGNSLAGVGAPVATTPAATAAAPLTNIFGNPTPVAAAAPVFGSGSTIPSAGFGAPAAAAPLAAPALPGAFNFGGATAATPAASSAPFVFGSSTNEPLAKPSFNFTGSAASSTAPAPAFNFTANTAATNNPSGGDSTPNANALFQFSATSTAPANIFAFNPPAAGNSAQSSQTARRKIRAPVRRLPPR

Assays:
[1] = biological target: T1, PCID2 (Drosophila (endogenous in embryos)) (UniProt Q9VTL1); experiment: co-IP; endogenous proteins; nuclear extract from 0 to 12 h Drosophila embryos treated with DNase and RNase; polyclonal antibodies against TREX-2 subunits, Nup153 or TPR on protein A-Sepharose; IP buffer 25 mM Tris-HCl pH 7.9, 10% glycerol, 0.1% NP-40, 0.5 mM DTT, 5 mM MgCl2, 100 mM KCl; washes with 500 mM KCl and 100 mM KCl; Western blot
T1 sequence: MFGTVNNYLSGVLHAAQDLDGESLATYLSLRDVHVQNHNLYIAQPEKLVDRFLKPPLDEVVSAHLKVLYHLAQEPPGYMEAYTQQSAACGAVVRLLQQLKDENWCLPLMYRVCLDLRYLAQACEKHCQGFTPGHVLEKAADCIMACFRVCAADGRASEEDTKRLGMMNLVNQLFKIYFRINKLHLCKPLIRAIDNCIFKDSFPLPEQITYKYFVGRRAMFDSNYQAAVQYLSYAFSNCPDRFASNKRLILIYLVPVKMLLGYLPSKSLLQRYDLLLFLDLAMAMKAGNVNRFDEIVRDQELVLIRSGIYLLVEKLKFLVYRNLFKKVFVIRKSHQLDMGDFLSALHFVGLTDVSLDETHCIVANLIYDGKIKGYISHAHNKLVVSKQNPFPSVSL

[2] = biological target: T2, ENY2 (Drosophila (endogenous in embryos)) (UniProt Q9VYX1); experiment: as above
T2 sequence: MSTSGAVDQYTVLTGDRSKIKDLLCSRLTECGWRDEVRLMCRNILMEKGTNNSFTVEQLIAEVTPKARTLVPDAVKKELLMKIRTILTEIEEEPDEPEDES

[3] = biological target: T3, HA-tagged N-TPR (1-1115 aa) (Drosophila) (UniProt A1Z8P9); experiment: co-IP; called pull-down assay; FLAG-tagged TREX-2 subunits co-expressed in pairs with HA-tagged Nup153 or TPR fragments in S2 cells for 4 days; lysis in 10 mM HEPES pH 7.9, 5 mM MgCl2, 0.5% NP-40, 0.45 M NaCl, 1 mM DTT; extract treated with DNase I and RNase; anti-FLAG M2 agarose or anti-HA agarose; Western blot
T3 sequence: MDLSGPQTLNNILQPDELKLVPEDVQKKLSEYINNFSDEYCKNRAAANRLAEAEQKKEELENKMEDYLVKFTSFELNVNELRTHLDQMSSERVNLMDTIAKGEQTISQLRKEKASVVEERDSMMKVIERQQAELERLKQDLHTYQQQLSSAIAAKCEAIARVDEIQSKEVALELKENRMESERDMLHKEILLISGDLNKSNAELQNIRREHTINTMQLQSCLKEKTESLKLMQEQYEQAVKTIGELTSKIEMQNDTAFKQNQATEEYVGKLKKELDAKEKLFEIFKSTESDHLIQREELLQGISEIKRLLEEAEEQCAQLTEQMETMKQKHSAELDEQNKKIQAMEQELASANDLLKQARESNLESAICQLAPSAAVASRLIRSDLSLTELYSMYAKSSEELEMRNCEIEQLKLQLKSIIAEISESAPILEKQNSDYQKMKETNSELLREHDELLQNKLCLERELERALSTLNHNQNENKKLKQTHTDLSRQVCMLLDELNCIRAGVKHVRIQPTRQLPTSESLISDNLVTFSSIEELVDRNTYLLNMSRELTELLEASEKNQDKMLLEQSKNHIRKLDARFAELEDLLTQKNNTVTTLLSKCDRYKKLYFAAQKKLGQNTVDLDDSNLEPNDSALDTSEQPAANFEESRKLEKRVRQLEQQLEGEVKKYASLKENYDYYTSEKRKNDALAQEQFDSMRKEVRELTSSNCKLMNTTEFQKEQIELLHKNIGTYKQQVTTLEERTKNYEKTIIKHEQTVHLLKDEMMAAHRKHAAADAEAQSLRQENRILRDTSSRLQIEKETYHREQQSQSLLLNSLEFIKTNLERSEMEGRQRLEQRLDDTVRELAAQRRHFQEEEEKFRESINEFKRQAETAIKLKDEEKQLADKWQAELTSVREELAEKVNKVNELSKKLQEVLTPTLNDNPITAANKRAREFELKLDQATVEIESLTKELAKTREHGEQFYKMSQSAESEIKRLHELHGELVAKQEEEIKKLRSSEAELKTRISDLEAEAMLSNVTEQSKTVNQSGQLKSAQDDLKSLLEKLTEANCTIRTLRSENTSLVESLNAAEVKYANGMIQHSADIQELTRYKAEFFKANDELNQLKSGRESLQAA

[4] = biological target: HA-tagged Nup153 (Drosophila) (UniProt Q9VXE6); experiment: as above
[5] = biological target: TPR/Megator (Drosophila (endogenous in embryos)) (UniProt A1Z8P9); experiment: co-IP; endogenous proteins; nuclear extract from 0 to 12 h Drosophila embryos treated with DNase and RNase; polyclonal antibodies against TREX-2 subunits, Nup153 or TPR on protein A-Sepharose; IP buffer 25 mM Tris-HCl pH 7.9, 10% glycerol, 0.1% NP-40, 0.5 mM DTT, 5 mM MgCl2, 100 mM KCl; washes with 500 mM KCl and 100 mM KCl; Western blot
[6] = biological target: Nup153 (Drosophila (endogenous in embryos)) (UniProt Q9VXE6); experiment: as above

Molecule: Nup153 (from UniProt Q9VXE6 1-1883)
binding [1]: binds
binding [2]: binds

B1: FLAG-tagged ENY2 (protein, UniProt Q9VYX1 1-101)
chain: T2 sequence
binding [3]: binds weakly
binding [4]: binds

B2: ENY2 (protein, UniProt Q9VYX1 1-101)
chain: T2 sequence
binding [5]: binds weakly
binding [6]: binds

Second part, the molecule after the results:

binding [5]: binds weakly
B3: Xmas-2 (protein, UniProt Q9U3V9-1 1-1370)
chain: MAEPRPGGYNYKTLLCRNIPELFLDKYVARSHFGRFGTLVNFVLRPRRMTCTVSYASEDEAARALLDGASFQGHLFDISYADNETAPAQKTEEWVDPDIQAELSALQSGWRNEYGSGKPIKKPQNGSSGSGGSSMLPAIPVGPATAPVSRDRTPAQLRDLENMMRRPAHTSEEKFSVLDARDKLLRLNRTQHKLSGATQGHCADMCPEKERVLREFQRQVAYYELQPGSDELICHERALKQYSRSSADQETPLPHELRNETALHMTMSYLMHEIMDISERQDPQSHMGDWFHFVWDRTRSIRKEITQQELCSLGAVKLVEQCARFHIHCAARLVDADPSVFDSKINAENLTKCLQTLKYMYHDLRIKGVPCPKEAEFRGYIVLLNLADANFLWDIGQLPAELQSCPEVRQAIQFYLALQDTNFVRFFQLLADKDTSYLSACILVNYFTRLRVLGLHRLIQAYRSPRKDEVSSLPLSYIAELLSFASEQEAADFVQHYGLQINEAGRVVLSRMHTVETEYKLPRQYELVEVKRVKSVGEVVSGEPLPPRDLYLNHRPHNSFDDYGMLKSIAWTAKDQLAGMQQEEMQPQMPSQPPAVSKHSDTLFKVPMQPDGTAAGFGVFAAAAVPPASSIDGFSFVLPKSRAQEFQEQAPATQQRRAQEEAKHQALQVAIAAAKKREAELMAIHEAKVAEAERVRQQKLRERQEQQRRQQQELEEQRQREQEKLQLEKERQLKLEQLFFVQQQEREAHKQTRTLELYQEIFQDTLAEICQSEFMSHSRACRSYESMLDSITRDLVERQMEQSIYELGVMRVCIRRWRKYRRTQQEKDTLFNQLPLSFGAENPEGVVNKRSMEDSLRLSRRYRLGEPCDYGKLLAGLEEHSWLKLDLWHVLDKCLPVAQPGARRFYKLLISLSGGQEGLQLNCDLDRGLLQQPQSPDARFVDGGYIRGFSQGIGLSVMKIRDDDHDWKATDLAEANGIICLIGLDDIRLLPDRLKPLLQASRCHDVAVIVQHPANTAFVQPDIPLQELCLRSFNIFRLRKSGNNRQRLMIALESAVKFLAKATERKRVGHLHQVETREYLLVNLGSELFRRLKYAAEHDTAIRSDTQLNPQRCVDLFNEAVHRLQLVAGEDLSDWPQFPEELRVFVQPLPIESSLNTNRLEHFEPGWHLPERRQRIVQLLERCKLPKMPVLPRSSSLAEAQCQWVLDYAQISQQEDCVEQIALQAIKILQYDTDDYLNFVEYLAGERMQYILRQERNPPQGIVYNTKTLKRRFLSAWYYEFREPQIYEPVPAEENAQMLEKQPSSQAEVQQLDFDEITSKAEAVLKRFHQRQDERHTLRELNRSHKSRKRRDASDHKHASKHKRKRSKSK

binding [5]: binds weakly
B4: PCID2 (protein, UniProt Q9VTL1 1-395)
chain: T1 sequence
